Some of the results follow. The data scatter; read single values as rough.
compound: ClCC(=O)N[C@H]1CCCc2ccccc12; experiment: log2 mean competition ratio of IA-DTB cysteine labelling (DMSO/compound) (log2 ratio); higher = stronger cysteine engagement by compound; conditions: 50 µM; treatment time: 4 h; cell line lysate: HEK293T
Protocol: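 IA-DTB competitive cysteine chemoproteomics in HEK293T RIPA lysate. Lysates were treated with compound 29 or 30 at 50 or 200 µM for 4 h, then IA-DTB (500 µM, 1 h), trypsin-digested, NeutrAvidin-enriched and analysed by diaPASEF. Competition ratio = intensity DMSO / intensity compound (n=4 treated, n=64 DMSO); binding: mean log2 CR ≥ 1 and p ≤ 0.05 plus QC filters. Target is the cysteine site.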

By UniProt entry, the sequences of proteins in these tests, tags left out. Where a name states a change or a piece, a line headed by the entry shows the natural chain unless it says otherwise.
UniProt Q96SK2: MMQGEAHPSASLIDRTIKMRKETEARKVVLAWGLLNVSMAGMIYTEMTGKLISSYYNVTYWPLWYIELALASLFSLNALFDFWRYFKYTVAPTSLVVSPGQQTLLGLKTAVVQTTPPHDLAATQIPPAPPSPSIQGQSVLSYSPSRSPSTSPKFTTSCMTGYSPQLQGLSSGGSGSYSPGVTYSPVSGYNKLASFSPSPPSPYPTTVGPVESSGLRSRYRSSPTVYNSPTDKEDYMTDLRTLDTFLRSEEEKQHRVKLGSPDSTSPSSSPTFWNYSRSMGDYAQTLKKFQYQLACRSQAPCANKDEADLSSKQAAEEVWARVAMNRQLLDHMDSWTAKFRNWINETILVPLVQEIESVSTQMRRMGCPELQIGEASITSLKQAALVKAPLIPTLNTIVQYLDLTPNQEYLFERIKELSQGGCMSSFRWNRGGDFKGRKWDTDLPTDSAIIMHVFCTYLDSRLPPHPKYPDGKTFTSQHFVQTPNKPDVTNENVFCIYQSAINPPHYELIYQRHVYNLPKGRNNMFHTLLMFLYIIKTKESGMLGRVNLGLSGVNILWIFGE
UniProt O94842: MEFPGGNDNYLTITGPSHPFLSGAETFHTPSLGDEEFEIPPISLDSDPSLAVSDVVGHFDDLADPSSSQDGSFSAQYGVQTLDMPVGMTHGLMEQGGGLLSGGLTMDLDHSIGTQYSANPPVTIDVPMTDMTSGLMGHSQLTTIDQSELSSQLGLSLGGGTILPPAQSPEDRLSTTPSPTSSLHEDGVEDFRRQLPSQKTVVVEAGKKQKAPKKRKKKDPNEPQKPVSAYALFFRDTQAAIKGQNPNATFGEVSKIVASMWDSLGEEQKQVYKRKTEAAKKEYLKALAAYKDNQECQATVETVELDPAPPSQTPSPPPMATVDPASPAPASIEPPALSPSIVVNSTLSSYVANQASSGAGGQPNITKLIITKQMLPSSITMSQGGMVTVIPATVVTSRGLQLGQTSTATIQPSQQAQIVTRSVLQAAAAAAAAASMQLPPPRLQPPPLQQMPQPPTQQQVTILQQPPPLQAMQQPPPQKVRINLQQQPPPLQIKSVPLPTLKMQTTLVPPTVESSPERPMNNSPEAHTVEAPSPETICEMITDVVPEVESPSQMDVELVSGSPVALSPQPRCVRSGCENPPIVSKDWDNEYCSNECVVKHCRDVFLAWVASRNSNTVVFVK
UniProt Q15650: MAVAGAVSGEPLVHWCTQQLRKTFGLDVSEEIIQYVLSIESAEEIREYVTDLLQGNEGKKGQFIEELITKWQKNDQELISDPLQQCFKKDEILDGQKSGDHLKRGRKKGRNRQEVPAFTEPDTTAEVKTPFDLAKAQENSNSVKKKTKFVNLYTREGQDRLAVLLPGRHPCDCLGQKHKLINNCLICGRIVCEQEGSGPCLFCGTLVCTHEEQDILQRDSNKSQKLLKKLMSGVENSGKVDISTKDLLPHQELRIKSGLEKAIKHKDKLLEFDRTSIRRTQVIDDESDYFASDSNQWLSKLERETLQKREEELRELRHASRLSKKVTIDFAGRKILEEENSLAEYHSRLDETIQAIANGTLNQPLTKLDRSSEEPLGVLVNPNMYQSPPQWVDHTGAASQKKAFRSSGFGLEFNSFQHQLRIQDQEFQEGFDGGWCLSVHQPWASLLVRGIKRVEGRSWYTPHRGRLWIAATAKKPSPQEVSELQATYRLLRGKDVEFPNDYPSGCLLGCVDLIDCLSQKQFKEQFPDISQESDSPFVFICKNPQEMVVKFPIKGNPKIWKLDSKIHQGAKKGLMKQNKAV
UniProt Q9C0C2: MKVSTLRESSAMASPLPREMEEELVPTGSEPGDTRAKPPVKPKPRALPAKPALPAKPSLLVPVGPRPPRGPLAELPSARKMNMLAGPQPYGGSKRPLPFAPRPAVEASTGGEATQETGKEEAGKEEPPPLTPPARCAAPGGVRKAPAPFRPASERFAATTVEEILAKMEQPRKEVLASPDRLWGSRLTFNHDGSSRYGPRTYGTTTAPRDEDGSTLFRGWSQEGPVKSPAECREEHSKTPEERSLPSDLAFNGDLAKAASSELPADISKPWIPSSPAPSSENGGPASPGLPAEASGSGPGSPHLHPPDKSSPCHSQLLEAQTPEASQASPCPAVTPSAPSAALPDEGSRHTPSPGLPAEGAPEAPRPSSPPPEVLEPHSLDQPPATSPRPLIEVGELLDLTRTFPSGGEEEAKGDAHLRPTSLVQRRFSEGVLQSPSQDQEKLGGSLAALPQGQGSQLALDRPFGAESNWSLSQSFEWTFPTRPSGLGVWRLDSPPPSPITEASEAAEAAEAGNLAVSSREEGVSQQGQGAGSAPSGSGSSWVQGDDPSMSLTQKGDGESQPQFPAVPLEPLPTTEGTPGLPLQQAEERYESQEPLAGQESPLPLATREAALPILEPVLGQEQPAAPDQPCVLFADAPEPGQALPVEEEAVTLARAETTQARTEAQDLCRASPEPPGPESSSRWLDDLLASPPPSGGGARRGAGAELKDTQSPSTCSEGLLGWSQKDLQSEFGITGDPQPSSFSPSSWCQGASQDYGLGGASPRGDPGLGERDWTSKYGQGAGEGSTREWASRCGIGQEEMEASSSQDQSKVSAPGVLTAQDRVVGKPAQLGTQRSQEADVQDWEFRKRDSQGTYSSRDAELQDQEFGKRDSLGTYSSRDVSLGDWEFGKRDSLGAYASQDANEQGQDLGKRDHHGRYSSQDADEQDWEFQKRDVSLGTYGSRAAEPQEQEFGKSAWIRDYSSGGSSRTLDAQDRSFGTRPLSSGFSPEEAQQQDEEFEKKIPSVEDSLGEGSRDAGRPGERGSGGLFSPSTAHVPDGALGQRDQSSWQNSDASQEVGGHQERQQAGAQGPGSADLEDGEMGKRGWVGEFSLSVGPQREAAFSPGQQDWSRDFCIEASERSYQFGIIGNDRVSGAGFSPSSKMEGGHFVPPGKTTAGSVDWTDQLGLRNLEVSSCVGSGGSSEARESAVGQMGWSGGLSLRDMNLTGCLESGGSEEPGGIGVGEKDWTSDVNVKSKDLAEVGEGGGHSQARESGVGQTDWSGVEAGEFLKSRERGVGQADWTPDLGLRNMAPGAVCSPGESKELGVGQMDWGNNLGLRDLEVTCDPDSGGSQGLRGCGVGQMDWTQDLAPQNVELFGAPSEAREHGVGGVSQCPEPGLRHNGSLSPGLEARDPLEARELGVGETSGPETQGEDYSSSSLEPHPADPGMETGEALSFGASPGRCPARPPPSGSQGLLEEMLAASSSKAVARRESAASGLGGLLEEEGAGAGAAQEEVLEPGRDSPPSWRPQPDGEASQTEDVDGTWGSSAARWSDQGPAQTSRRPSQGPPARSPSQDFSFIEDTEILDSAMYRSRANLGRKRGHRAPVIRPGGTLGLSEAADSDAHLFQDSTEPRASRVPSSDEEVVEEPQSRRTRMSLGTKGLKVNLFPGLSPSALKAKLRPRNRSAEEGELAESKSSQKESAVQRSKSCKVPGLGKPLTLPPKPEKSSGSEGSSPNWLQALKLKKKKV
UniProt Q07912: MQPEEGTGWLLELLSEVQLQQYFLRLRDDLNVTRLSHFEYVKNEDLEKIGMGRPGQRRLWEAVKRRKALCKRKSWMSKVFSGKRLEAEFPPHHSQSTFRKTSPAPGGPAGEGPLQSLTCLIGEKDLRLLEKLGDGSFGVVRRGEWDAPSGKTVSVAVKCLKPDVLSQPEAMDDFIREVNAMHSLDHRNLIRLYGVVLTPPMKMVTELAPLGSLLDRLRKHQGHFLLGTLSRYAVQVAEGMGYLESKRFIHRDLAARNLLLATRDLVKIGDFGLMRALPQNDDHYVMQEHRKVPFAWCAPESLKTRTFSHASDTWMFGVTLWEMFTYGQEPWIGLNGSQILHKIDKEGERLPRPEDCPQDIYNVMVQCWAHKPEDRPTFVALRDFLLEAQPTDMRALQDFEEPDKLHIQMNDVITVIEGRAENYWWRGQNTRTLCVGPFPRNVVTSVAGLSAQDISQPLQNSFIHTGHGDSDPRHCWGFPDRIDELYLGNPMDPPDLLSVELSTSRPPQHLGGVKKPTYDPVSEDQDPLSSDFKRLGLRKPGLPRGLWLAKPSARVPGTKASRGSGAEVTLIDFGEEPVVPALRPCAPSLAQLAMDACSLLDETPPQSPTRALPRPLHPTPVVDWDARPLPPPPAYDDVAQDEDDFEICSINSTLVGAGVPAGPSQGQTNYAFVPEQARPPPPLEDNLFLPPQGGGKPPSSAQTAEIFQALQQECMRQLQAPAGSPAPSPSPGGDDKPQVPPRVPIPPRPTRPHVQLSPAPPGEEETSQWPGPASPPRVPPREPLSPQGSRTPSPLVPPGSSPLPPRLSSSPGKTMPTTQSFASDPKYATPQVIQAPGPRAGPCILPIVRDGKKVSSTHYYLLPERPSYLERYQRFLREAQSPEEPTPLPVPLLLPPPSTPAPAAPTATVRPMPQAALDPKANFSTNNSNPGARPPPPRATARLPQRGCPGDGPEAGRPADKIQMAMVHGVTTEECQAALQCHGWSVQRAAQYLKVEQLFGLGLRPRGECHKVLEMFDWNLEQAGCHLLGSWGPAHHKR
UniProt Q14669: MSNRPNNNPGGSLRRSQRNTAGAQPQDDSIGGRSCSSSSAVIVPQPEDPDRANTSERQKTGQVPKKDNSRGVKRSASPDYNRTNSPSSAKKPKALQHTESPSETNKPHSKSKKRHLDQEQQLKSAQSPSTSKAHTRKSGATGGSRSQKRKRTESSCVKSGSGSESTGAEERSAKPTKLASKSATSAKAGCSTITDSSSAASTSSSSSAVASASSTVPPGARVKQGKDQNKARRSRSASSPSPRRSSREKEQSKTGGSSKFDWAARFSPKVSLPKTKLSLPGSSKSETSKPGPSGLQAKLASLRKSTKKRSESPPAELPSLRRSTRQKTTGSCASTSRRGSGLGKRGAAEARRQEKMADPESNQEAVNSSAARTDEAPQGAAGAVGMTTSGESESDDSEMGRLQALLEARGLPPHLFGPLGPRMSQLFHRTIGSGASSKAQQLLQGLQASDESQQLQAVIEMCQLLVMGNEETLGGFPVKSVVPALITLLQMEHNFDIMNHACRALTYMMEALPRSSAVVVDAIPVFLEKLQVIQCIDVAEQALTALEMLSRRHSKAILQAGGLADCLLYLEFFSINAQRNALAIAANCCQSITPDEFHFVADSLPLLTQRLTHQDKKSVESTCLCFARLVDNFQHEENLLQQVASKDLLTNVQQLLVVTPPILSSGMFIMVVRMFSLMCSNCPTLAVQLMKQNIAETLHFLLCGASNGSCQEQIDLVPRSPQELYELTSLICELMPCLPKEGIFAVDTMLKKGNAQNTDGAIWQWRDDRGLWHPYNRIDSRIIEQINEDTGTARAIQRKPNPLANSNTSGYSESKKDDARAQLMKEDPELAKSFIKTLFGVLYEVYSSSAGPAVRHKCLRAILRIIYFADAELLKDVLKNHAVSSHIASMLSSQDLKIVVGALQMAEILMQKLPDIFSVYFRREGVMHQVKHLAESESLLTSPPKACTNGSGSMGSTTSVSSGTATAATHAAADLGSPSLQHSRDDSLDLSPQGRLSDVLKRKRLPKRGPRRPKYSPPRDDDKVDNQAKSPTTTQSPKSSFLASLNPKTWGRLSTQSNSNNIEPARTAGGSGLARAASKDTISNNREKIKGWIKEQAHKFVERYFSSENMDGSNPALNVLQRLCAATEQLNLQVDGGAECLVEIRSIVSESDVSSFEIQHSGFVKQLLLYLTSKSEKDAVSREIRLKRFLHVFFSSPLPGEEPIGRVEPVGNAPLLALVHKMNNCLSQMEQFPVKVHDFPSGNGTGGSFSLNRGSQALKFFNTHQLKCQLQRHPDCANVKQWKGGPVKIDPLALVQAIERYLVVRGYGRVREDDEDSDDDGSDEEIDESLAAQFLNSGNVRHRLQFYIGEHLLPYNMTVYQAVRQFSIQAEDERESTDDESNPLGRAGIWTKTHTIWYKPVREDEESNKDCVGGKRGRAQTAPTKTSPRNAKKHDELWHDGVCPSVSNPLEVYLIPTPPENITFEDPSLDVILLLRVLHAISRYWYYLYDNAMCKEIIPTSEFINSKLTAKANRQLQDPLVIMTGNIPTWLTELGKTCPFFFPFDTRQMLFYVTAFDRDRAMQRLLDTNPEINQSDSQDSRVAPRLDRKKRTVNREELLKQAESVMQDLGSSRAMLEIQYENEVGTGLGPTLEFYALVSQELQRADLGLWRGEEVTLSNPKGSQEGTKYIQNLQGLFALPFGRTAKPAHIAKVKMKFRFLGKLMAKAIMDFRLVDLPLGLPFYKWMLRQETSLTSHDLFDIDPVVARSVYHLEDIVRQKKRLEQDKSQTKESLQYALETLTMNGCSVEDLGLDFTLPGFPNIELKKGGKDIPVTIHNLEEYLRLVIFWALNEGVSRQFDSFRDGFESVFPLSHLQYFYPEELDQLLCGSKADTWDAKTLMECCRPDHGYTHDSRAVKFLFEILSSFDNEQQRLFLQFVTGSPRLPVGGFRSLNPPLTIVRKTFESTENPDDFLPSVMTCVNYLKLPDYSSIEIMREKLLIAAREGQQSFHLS

Target | log2 mean competition ratio
TMEM209 C367 (UniProt Q96SK2) | 0.283
TM9SF3 C428 (UniProt Q9HD45) | 0.327
TKFC C155 (UniProt Q3LXA3) | 0.643
TINF2 C332 | 0.0385
TRIM24 C81 (UniProt O15164) | 0.09
TLN1 C1927 (UniProt Q9Y490) | -0.172
TOPBP1 C911 (UniProt Q92547) | 0.0645
TOX4 C577 (UniProt O94842) | 0.0618
TLE3 C26 | 0.00116
TRAF2 C124 (UniProt Q12933) | -0.136
TRIP4 C86 (UniProt Q15650) | -0.284
TNKS1BP1 C1114 (UniProt Q9C0C2) | 0.224
TIPRL C14 (UniProt O75663) | -0.0884
TONSL C66 (UniProt Q96HA7) | 0.238
TOB1 C122 (UniProt P50616) | -0.189
TMEM223 C156 (UniProt A0PJW6) | 0.345
TNK2 C843 (UniProt Q07912) | -0.142
TPGS2 C150 | 0.219
TNKS1BP1 C1324 (UniProt Q9C0C2) | 0.0343
TRIP12 C1538 (UniProt Q14669) | 0.0674

same assay, conditions: 200 µM; treatment time: 4 h; cell line lysate: HEK293T

Target | log2 mean competition ratio
TMEM209 C367 (UniProt Q96SK2) | -0.034
TM9SF3 C428 (UniProt Q9HD45) | 0.339
TKFC C155 (UniProt Q3LXA3) | -0.0473
TINF2 C332 | -0.0476
TRIM24 C81 (UniProt O15164) | 0.0765
TLN1 C1927 (UniProt Q9Y490) | -0.49
TOPBP1 C911 (UniProt Q92547) | -0.211
TOX4 C577 (UniProt O94842) | -0.0276
TLE3 C26 | 0.0742
TRAF2 C124 (UniProt Q12933) | 0.0356
TRIP4 C86 (UniProt Q15650) | -0.0779
TNKS1BP1 C1114 (UniProt Q9C0C2) | 0.1
TIPRL C14 (UniProt O75663) | -0.202
TONSL C66 (UniProt Q96HA7) | -0.0105
TOB1 C122 (UniProt P50616) | -0.0873
TMEM223 C156 (UniProt A0PJW6) | 0.261
TNK2 C843 (UniProt Q07912) | 0.285
TPGS2 C150 | 0.0288
TNKS1BP1 C1324 (UniProt Q9C0C2) | 0.123
TRIP12 C1538 (UniProt Q14669) | 0.195

From the supplement of paper PMC11732987, “Enantioselective OTUD7B fragment discovery through chemoproteomics screening and high-throughput optimisation” (Communications Chemistry, 2025)
